Measured data: PubChem BioAssay AID1259405 (NCATS, 2018)
Purpose: 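Silenced genes that increase secreted GFP made by CHO cells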 (primary screen). Cells: Chinese hamster CHO-K1 ovary cells with stable secreted eGFP expression. Reagent: single siRNA against mouse genes, 0.8 pmol siRNA per well (2 µl of 400 nM stock). Time to read-out: 3 days. Measurement: 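Percent of the per-plate non-targeting control median for intracellular GFP per well by laser scanning cytometry and for cell viability by ATP luminescence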. Direction: GFP, % of control: higher = more GFP per well, higher productivity; viability (ATP), % of control: higher = more viable cells (more ATP). Active means: 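Called active when intracellular GFP, relative to negative control, is at or above 120%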.
In all, the deposit lists about 50,000 reagents; this is a random part of them. Over the whole deposit, about 4,000 (8%) were called active. 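Mouse siRNA library applied to hamster cells; one well for each siRNA.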 Entries without a mark were called inactive. The numbers tell different reagents against one gene apart.

no.	Gene	reagent	GFP, % of control	viability (ATP), % of control
1	Arrb2 (arrestin, beta 2)	1	67.2	27.6
2	Arrb2 (arrestin, beta 2)	2	53.4	52.9
3	Arrb2 (arrestin, beta 2)	3	90.7	62.1
4	Plcd3 (phospholipase C, delta 3)	1	56.1	65.1
5	Plcd3 (phospholipase C, delta 3)	2	61.5	56.7
6	Plcd3 (phospholipase C, delta 3)	3	96.6	54.1
7	Podxl (podocalyxin-like)	1	41.5	44.3
8	Podxl (podocalyxin-like)	2	93	82.9
9	Podxl (podocalyxin-like)	3	65.9	64.9
10	Tmem175 (transmembrane protein 175)	1	54	74.8
11	Tmem175 (transmembrane protein 175)	2	68.3	89.6
12	Tmem175 (transmembrane protein 175)	3	73	55.8
13	H4c8 (H4 clustered histone 8)	1	49.4	76.3
14	H4c8 (H4 clustered histone 8)	2	77.4	83.8
15	H4c8 (H4 clustered histone 8)	3	41.7	56.7
16	Ryk (receptor-like tyrosine kinase)	1	59.2	63.9
17	Ryk (receptor-like tyrosine kinase)	2	53.3	97.6
18	Ryk (receptor-like tyrosine kinase)	3	71.6	61.8
19	Rin1 (Ras and Rab interactor 1)	1	89.5	97.3
20	Rin1 (Ras and Rab interactor 1)	2	73.2	76.2
21	Rin1 (Ras and Rab interactor 1)	3	117	75.7
22	Gm16367 (predicted gene 16367)	1	100	79.1
23	Gm16367 (predicted gene 16367)	2	91.1	95.4
24	Gm16367 (predicted gene 16367)	3	58.9	55.1
25	Sqstm1 (sequestosome 1)	1	28.2	36.9
26	Sqstm1 (sequestosome 1)	2	83.8	89.9
27	Sqstm1 (sequestosome 1)	3	107	147
28	Mamstr	1	57.7	58.1
29	Mamstr	2	82.9	77
30	Mamstr	3	132 (active)	119
31	Zfp692 (zinc finger protein 692)	1	44.6	80.8
32	Zfp692 (zinc finger protein 692)	2	83.7	101
33	Grk6 (G protein-coupled receptor kinase 6)	1	85.1	94.9
34	Grk6 (G protein-coupled receptor kinase 6)	2	61.6	60.6
35	Grk6 (G protein-coupled receptor kinase 6)	3	116	113
36	Gng13 (guanine nucleotide binding protein (G protein), gamma 13)	1	75.9	70.7
37	Gng13 (guanine nucleotide binding protein (G protein), gamma 13)	2	79.3	91.5
38	Gng13 (guanine nucleotide binding protein (G protein), gamma 13)	3	32.2	30.6
39	Dennd10 (DENN domain containing 10)	1	113	86.1
40	Dennd10 (DENN domain containing 10)	2	29.5	39.2
41	Dennd10 (DENN domain containing 10)	3	82.5	76.2
42	Or10v5 (olfactory receptor family 10 subfamily V member 5)	1	140 (active)	111
43	Or10v5 (olfactory receptor family 10 subfamily V member 5)	2	66.5	73.6
44	Or10v5 (olfactory receptor family 10 subfamily V member 5)	3	30.6	51.8
45	Tbc1d9 (TBC1 domain family, member 9)	1	92.8	91.5
46	Tbc1d9 (TBC1 domain family, member 9)	2	81.4	66.9
47	Tbc1d9 (TBC1 domain family, member 9)	3	68	68.5
48	Vgll4 (vestigial like family member 4)	1	72.5	44
49	Vgll4 (vestigial like family member 4)	2	115	95.7
50	Vgll4 (vestigial like family member 4)	3	77.9	84.8
51	Rprm (reprimo, TP53 dependent G2 arrest mediator candidate)	1	67.1	64.4
52	Rprm (reprimo, TP53 dependent G2 arrest mediator candidate)	2	96	87.9
53	Rprm (reprimo, TP53 dependent G2 arrest mediator candidate)	3	78.3	72.5
54	Eif2s1 (eukaryotic translation initiation factor 2, subunit 1 alpha)	1	71.8	59.4
55	Eif2s1 (eukaryotic translation initiation factor 2, subunit 1 alpha)	2	32.8	38.1
56	Eif2s1 (eukaryotic translation initiation factor 2, subunit 1 alpha)	3	85.7	82.6
57	Oaz1 (ornithine decarboxylase antizyme 1)	1	65.2	96.4
58	Oaz1 (ornithine decarboxylase antizyme 1)	2	42.1	59.1
59	Gk (glycerol kinase)	1	98.9	84.1
60	Gk (glycerol kinase)	2	121 (active)	43.8
61	Gk (glycerol kinase)	3	105	103
62	Adgrf1 (adhesion G protein-coupled receptor F1)	1	44.7	66.8
63	Adgrf1 (adhesion G protein-coupled receptor F1)	2	74.5	71.8
64	Adgrf1 (adhesion G protein-coupled receptor F1)	3	89	83.6
65	Atp6v1f (ATPase, H+ transporting, lysosomal V1 subunit F)	1	76.4	120
66	Atp6v1f (ATPase, H+ transporting, lysosomal V1 subunit F)	2	132 (active)	140
67	Atp6v1f (ATPase, H+ transporting, lysosomal V1 subunit F)	3	96.5	83.6
68	Fam163a (family with sequence similarity 163, member A)	1	80.3	73.5
69	Fam163a (family with sequence similarity 163, member A)	2	68.4	66.7
70	Fam163a (family with sequence similarity 163, member A)	3	48.8	64.6
71	BB014433 (expressed sequence BB014433)	1	81.3	59.9
72	BB014433 (expressed sequence BB014433)	2	85.9	87.8
73	BB014433 (expressed sequence BB014433)	3	128 (active)	119
74	Peli3 (pellino 3)	1	47.5	24.9
75	Peli3 (pellino 3)	2	59.9	71.1
76	Peli3 (pellino 3)	3	80.3	109
77	Pnpla3 (patatin-like phospholipase domain containing 3)	1	90.2	77.4
78	Pnpla3 (patatin-like phospholipase domain containing 3)	2	58.9	56.8
79	Pnpla3 (patatin-like phospholipase domain containing 3)	3	36.3	27.4
80	Psmd11 (proteasome (prosome, macropain) 26S subunit, non-ATPase, 11)	1	37.6	11.7
81	Psmd11 (proteasome (prosome, macropain) 26S subunit, non-ATPase, 11)	2	36.4	20.2
82	Psmd11 (proteasome (prosome, macropain) 26S subunit, non-ATPase, 11)	3	58.9	67.1
83	Hspb7 (heat shock protein family B (small) member 7)	1	52.5	58.7
84	Hspb7 (heat shock protein family B (small) member 7)	2	76.4	76.3
85	Hspb7 (heat shock protein family B (small) member 7)	3	94.2	106
86	Grik1 (glutamate receptor, ionotropic, kainate 1)	1	86.8	102
87	Grik1 (glutamate receptor, ionotropic, kainate 1)	2	64.3	77.6
88	Grik1 (glutamate receptor, ionotropic, kainate 1)	3	165 (active)	80.3
89	Usp13 (ubiquitin specific peptidase 13 (isopeptidase T-3))	1	61.2	84.3
90	Usp13 (ubiquitin specific peptidase 13 (isopeptidase T-3))	2	32.2	47.4
91	Usp13 (ubiquitin specific peptidase 13 (isopeptidase T-3))	3	55	75.7
92	Syt2 (synaptotagmin II)	1	98.7	105
93	Syt2 (synaptotagmin II)	2	65.2	71.4
94	Mmp25 (matrix metallopeptidase 25)	1	66.8	76
95	Mmp25 (matrix metallopeptidase 25)	2	55.2	62.8
96	Eif3e (eukaryotic translation initiation factor 3, subunit E)	1	89.8	80.3
97	Eif3e (eukaryotic translation initiation factor 3, subunit E)	2	53.3	41.2
98	Eif3e (eukaryotic translation initiation factor 3, subunit E)	3	69.8	73.6
99	Slc28a2	1	104	99.4
100	Slc28a2	2	36	70.3
101	Slc28a2	3	156 (active)	89
102	Mir9-2hg (Mir9-2 host gene)	1	43.8	51.9
103	Mir9-2hg (Mir9-2 host gene)	2	54.3	81.4
104	Mir9-2hg (Mir9-2 host gene)	3	114	116
105	Asap1 (ArfGAP with SH3 domain, ankyrin repeat and PH domain1)	1	83.3	83.9
106	Asap1 (ArfGAP with SH3 domain, ankyrin repeat and PH domain1)	2	79.3	85.8
107	Asap1 (ArfGAP with SH3 domain, ankyrin repeat and PH domain1)	3	109	84.9
